In test [1] the target is T1, GFP-AtEH1 (recombinant, full length) (A. thaliana) (UniProt Q9LM78).
T1 sequence: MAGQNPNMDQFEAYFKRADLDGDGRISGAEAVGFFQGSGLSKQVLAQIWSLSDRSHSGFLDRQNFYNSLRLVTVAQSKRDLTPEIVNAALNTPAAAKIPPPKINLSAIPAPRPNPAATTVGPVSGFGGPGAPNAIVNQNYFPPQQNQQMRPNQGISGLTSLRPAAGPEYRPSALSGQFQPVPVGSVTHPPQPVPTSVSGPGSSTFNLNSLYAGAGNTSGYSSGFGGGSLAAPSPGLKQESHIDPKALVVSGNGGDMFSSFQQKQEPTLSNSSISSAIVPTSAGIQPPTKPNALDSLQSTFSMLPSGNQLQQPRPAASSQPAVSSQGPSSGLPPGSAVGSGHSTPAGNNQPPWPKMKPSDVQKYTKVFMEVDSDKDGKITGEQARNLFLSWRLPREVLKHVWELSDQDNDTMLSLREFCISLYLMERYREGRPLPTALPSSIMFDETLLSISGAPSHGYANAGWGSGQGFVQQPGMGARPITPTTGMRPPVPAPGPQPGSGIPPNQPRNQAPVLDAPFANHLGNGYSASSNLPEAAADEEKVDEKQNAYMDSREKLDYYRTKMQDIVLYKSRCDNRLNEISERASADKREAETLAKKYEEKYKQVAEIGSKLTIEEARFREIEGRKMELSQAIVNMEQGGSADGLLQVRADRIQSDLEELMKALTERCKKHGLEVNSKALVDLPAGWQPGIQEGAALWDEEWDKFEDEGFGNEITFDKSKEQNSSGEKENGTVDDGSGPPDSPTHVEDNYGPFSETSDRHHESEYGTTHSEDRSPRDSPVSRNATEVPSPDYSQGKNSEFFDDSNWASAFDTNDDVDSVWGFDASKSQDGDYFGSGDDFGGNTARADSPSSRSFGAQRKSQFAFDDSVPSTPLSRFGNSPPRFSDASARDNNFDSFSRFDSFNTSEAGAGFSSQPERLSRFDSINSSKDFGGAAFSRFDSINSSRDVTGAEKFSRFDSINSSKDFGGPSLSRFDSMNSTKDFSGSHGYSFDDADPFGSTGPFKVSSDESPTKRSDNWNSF
Put plainly: in vitro partitioning assay (confocal microscopy of droplets); 5 µM EH1(FL)-GFP after MBP cleaved and 5 µM mCherry-TOL6 mixed in 40 mM Tris-HCl pH7.4, 100 mM NaCl, on ice for 30 min; droplets observed in a 384-well plate; both purified.

The target in test [2] is T2, AtEH1-GFP (35S:AtEH1-GFP) (A. thaliana) (UniProt Q9LM78).
T2 sequence: T1 sequence
Nature of the test: partitioning into condensates (Airyscan microscopy); CLC-mKo and 35S:AtEH1-GFP in A. thaliana hypocotyl cells; plot profiles of fluorescence.

No constants are given. Whether binding was seen depends on the method and setting. Some binding calls cover weakened binding; strength is not graded here. Tags and fused reporters may be left off the sequences shown.

B1: TOL6-mCherry (recombinant) (protein, UniProt O80910 1-671)
chain: MASSSASATVAVDKATSDLLLGPDWTTNMEICDSVNSLHWQAKDVVKAVKKRLQHKSSRVQLLALTLLETLVKNCGDYLHHQVAEKNILGEMVKIVKKKADMQVRDKILVMVDSWQQAFGGPEGKYPQYYWAYDELRRSGVEFPRRSPDASPIITPPVSHPPLRQPQGGYGVPPAGYGVHQAGYGVPQAGYGIPQAGYGVPQAGYGIPQVGYGMPSGSSRRLDEAMATEVEGLSLSSIESMRDVMDLLGDMLQAVDPSDREAVKDEVIVDLVERCRSNQKKLMQMLTSTGDDELLGRGLDLNDSLQILLAKHDAIASGSPLPVQASGSPLSVQASKPADSSPKSSEAKDSSSIAGSSSPIPATVSTGKSPIDEEYEEEEDEFAQLARRHSKPPASVTTDPTSLESHNAASNALALALPDPPPPVNTTKEQDMIDLLSITLCTPSTPPAPSSQPSPPPPAGSDQNTHIYPQPQPRFDSYVAPWAQQQQPQQPQAQQGYSQHQQHQQQQGYSQPQHSQQQQGYSQLQQPQPQQGYSQSQPQAQVQMQPSTRPQNPYEYPPPPWASTSANAYYTPRANASASYTDTSALAGRSLQQSNSFPTRAGDPQATSTASNSGVSVGQKPFVPSYRLFEDLDVFGSADGKHNKPANSSNGSQNLSGSQTQQSMIGGRKMI
Consider B1, for which the binding result in test [1] is “binds”.

B2: TOL9-mCherry (recombinant) (protein, UniProt Q8L860 1-675)
chain: MVNAMVERATSEMLIGPDWAMNLEICDMLNSDPAQAKDVVKGIKKRIGSRNPKAQLLALTLLETIVKNCGDMVHMHVAEKGVIHEMVRIVKKKPDFHVKEKILVLIDTWQEAFGGPRARYPQYYAGYQELLRAGAVFPQRSERSAPVFTPPQTQPLTSYPPNLRNAGPGNDVPEPSAEPEFPTLSLSEIQNAKGIMDVLAEMLSALEPGNKEDLKQEVMVDLVEQCRTYKQRVVHLVNSTSDESLLCQGLALNDDLQRVLTNYEAIASGLPGTSSQIEKPKSETGKSLVDVDGPLIDTGDSSNQANGATSSSGNGVLNQLALPAPPVTNGSANSKIDLLSGDDLALVPVGPPQPASPVASDQNALALIDMFSDNTNNPSPATAPSGNPAQNIPLNPQGHQQPNSQAGEAGLQQSNGFAPQVGYSQFEQPSYGQGVSSPWSSQPAQQPVQPSYGAQDSTAFPPPPWEAQLQDYSPSAESGSPFSPGMHPTQTAFTHAQPVNNNNPYPQIPQTGPPVNNNSPYAQMPQTGQAVANISPYPQIPQNGVYMPNQPNQALGSGYQPQQQQQQQMMMAQYYAQQQQLQQQQQQQAYGNQMGGYGYGYNQQQQGSSPYLDQQMYGLSMRDQTSHQVASSSSTTSYLPPMKPKNKPEDKLFGDLVDISKFKPTKPTSGRAGTM
B2: in test [1], the binding entry is “binds”.

B3: clathrin light chain 2 (CLC-mKo) (protein, UniProt O04209 1-258)
chain: MSAFEDDSFVILNDDASESVPVSGSFDATDSFSAFDGSLQVEDSVDDVFAAPSSDYGAYSNGDGIFGSNGDHDGPILPPPSEMESDEGFALREWRRQNAIQLEEKEKREKELLKQIIEEADQYKEEFHKKIEVTCENNKAANREKEKLYLENQEKFYAESSKNYWKAIAELVPKEVPTIEKRRGKKEQQDPKKPTVSVIQGPKPGKPTDLTRMRQILVKLKHNPPSHLKLTSQPPSEEAAAPPKNVPETKPTEAVTAA
In the case of B3, in test [2], the binding result is on record as “binds”.

The record behind these values is PMC7615741.
